No end group written: not given here.

The test system of this data set is Fn fibers in PC-3 xenograft tumor cryosections. The data set can be described thus: Spatial proximity analysis of stained PC-3 tumor cryosections. Also noted: species or system mouse. Particulars: 5 × 5 pixel matrix.

For the sequence “CGGGQVTTESNLVEFDEESTKGIVTGAVSDHTTVEDTK [FnBPA5]”, where the note is “19 images”, the “FnBPA5-positive pixels in proximity to SHG-positive collagen pixels” value was 45% and the “collagen bundle (SHG) pixels in close proximity to FnBPA5 pixels” value was found to be 87%. For the same sequence, the “α-SMA-positive pixels in close proximity to FnBPA5-positive pixels” value (60 images, FnBPA5-Cy5 stain) was 94.5%.

The values are drawn from paper PMC5702617, “Novel peptide probes to assess the tensional state of fibronectin fibers in cancer” (Nature Communications, 2017).
